{
  "sequences": {"note": "Amino acid sequences for entries named in this document (tags omitted). A change or cut given only in a name is not applied to a line headed by its entry.", "UniProt Q12809": "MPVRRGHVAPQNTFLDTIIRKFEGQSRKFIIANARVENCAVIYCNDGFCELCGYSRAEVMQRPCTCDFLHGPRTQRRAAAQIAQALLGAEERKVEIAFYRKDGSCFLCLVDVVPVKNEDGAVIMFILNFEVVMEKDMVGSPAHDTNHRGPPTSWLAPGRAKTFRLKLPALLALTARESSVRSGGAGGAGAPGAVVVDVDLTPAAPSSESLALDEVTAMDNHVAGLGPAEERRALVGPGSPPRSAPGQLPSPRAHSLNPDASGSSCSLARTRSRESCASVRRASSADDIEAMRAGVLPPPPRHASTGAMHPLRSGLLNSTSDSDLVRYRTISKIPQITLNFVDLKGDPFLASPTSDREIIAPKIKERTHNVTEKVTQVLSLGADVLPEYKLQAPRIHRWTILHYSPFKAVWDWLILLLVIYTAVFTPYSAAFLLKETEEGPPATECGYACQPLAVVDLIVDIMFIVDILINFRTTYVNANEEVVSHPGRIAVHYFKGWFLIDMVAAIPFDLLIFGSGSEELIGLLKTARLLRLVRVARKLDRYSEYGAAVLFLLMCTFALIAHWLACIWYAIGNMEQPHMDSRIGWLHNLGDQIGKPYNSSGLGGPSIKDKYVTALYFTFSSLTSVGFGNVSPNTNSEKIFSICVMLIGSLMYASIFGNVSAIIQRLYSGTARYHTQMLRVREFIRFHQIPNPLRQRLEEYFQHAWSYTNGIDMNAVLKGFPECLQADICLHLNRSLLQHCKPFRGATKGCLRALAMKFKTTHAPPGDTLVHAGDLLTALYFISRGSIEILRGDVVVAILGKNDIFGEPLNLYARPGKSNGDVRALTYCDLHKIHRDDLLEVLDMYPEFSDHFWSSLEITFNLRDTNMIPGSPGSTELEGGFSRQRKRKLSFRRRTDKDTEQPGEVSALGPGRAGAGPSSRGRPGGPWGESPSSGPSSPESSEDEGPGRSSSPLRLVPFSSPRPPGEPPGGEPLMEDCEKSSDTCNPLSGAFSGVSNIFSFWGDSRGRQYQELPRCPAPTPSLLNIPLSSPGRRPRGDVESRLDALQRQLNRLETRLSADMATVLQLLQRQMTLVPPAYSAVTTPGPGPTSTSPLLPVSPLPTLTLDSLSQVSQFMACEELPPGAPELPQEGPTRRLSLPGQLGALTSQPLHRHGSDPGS"},
  "source": "patent US10160744B2",
  "about": "“Quinoline compounds suitable for treating disorders that respond to the modulation of the serotonin 5-HT6 receptor” (Abbvie Deutschland GmbH & Co. KG, priority 2016, dated 2018)",
  "note": "Some results were stated once for a whole list of compounds, not compound by compound.",
  "data": [
    {"molecular_target": "T1, hERG channel (Homo sapiens, UniProt Q12809)", "T1 construct": "W. January, Cardiology Division, University of Wisconsin; host or cells: HEK-293", "experiment": "Blocking the hERG channel (automated whole-cell patch clamp, PatchXpress)", "format": "cell-based", "details": "HEK-293 cells stably transfected with hERG, patch clamp, 10, 30 or 100 μM", "values": [
      {"molecule": "O=S(=O)(c1cccc(N2CCC(O)CC2)c1)c1cnc2c(F)cccc2c1", "note": "[Example 24, 1-[3-[(8-Fluoro-3-quinolyl)sulfonyl]phenyl]piperidin-4-ol]", "hERG channel blockade value": "more than 10 μM"},
      {"molecule": "O=S(=O)(c1ccccc1)c1cnc2c(N3CC[C@@H](O)[C@@H](O)C3)cccc2c1", "note": "[Example 41, (3S,4R)-1-[3-(Benzenesulfonyl)-8-quinolyl]piperidine-3,4-diol]", "hERG channel blockade value": "more than 10 μM"},
      {"molecule": "O=S(=O)(c1ccccc1)c1cnc2c(N3C[C@@H](O)[C@H](O)C3)cccc2c1", "note": "[Example 45, (3R,4R)-1-[3-(Benzenesulfonyl)-8-quinolyl]pyrrolidine-3,4-diol]", "hERG channel blockade value": "more than 10 μM"},
      {"molecule": "O=S(=O)(c1cccc(C(F)(F)F)c1)c1cnc2c(N3CCC[C@@H](O)C3)cccc2c1", "note": "[Example 5, (R)-1-[3-(3-Trifluoromethyl-benzenesulfonyl)-quinolin-8-yl]-piperidin-3-ol]", "hERG channel blockade value": "more than 10 μM"},
      {"molecule": "O=S(=O)(c1cccc(C(F)(F)F)c1)c1cnc2c(N3CC(O)C3)cccc2c1", "note": "[Example 8, 1-[3-[3-(Trifluoromethyl)phenyl]sulfonyl-8-quinolyl]azetidin-3-ol]", "hERG channel blockade value": "more than 10 μM"},
      {"molecule": "O=S(=O)(c1ccccc1)c1cnc2c(N3CCC(O)CC3)cccc2c1", "note": "[Example 18, 1-[3-(Benzenesulfonyl)-8-quinolyl]piperidin-4-ol]", "hERG channel blockade value": "more than 10 μM"},
      {"molecule": "O=S(=O)(c1cccc(F)c1)c1cnc2c(N3CCC[C@H](O)C3)cccc2c1", "note": "[Example 27, (3S)-1-[3-(3-Fluorophenyl)sulfonyl-8-quinolyl]piperidin-3-ol]", "hERG channel blockade value": "more than 10 μM"},
      {"molecule": "O=S(=O)(c1ccccc1)c1cnc2c(N3CCC[C@@H](O)C3)cccc2c1", "note": "[Example 23, (3R)-1-[3-(Benzenesulfonyl)-8-quinolyl]piperidin-3-ol]", "hERG channel blockade value": "more than 10 μM"},
      {"molecule": "O=S(=O)(c1cccc(F)c1)c1cnc2c(N3CCC(O)CC3)cccc2c1", "note": "[Example 9, 1-[3-(3-Fluorophenyl)sulfonyl-8-quinolyl]piperidin-4-ol]", "hERG channel blockade value": "more than 10 μM"},
      {"molecule": "O=C(O)C1CCN(c2cccc3cc(S(=O)(=O)c4cccc(C(F)(F)F)c4)cnc23)CC1", "note": "[Example 3, 1-[3-(3-Trifluoromethyl-benzenesulfonyl)-quinolin-8-yl]-piperidine-4-carboxylic Acid]", "hERG channel blockade value": "more than 10 μM"},
      {"molecule": "COc1cccc(S(=O)(=O)c2cnc3c(N4CCC(O)CC4)cccc3c2)c1", "note": "[Example 13, 1-[3-(3-Methoxyphenyl)sulfonyl-8-quinolyl]piperidin-4-ol]", "hERG channel blockade value": "more than 10 μM"}
    ]}
  ]
}
